Laboratory results: PubChem BioAssay AID1159594 (NIAID, 2016)

Aim: 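Genes required for a TNF reporter response to diacyl lipopeptide stimulation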
Cells: human THP-1 B5 reporter cells, PMA-differentiated into macrophage-like cells
Knock-down reagent: single siRNA against human genes
Timing: 48 to 72 hours after siRNA transfection; ligand exposure 4 hours
Conditions: Pam2CSK4 (TLR2/6 agonist) stimulation for 4 hours before lysis; dose not given
Measured: 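TNF promoter reporter signal as firefly to renilla luciferase ratio, scaled per plate by median and MAD, given as robust z-score against negative controls, averaged across replicates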
Direction: TNF reporter z-score: higher = stronger TNF promoter reporter activity
Active means: 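The depositor sorts siRNAs into z-score bands with cut-offs of 2.5, 2, 1.5 and 1; grade 50 and above, meaning |z| of 1.5 or more, counts as active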
Meaning of the calls: active = z-score beyond ±1.5 (either direction); inactive = z-score within ±1.5
This is an unselected part of 756 reagents. 130 of all reagents (17%) were called active. 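Active calls cover both falls and rises of reporter activity; each row reflects one siRNA, not a gene-level verdict.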 Reagents against one gene are numbered here. Reagent sequences are not shown. Not stated in the record: the amount of reagent.

| gene symbol | reagent | TNF reporter z-score, replicate mean | outcome |
| --- | --- | --- | --- |
| DUSP2 (dual specificity phosphatase 2) | 1 | 0.209 | inactive |
| DUSP2 (dual specificity phosphatase 2) | 2 | -0.663 | inactive |
| DUSP2 (dual specificity phosphatase 2) | 3 | -3.43 | active |
| DUSP2 (dual specificity phosphatase 2) | 4 | -0.24 | inactive |
| DUSP2 (dual specificity phosphatase 2) | 5 | -0.245 | inactive |
| DUSP2 (dual specificity phosphatase 2) | 6 | 0.172 | inactive |
| ELK1 (ETS transcription factor ELK1) | 1 | -0.334 | inactive |
| ELK1 (ETS transcription factor ELK1) | 2 | -2.57 | active |
| ELK1 (ETS transcription factor ELK1) | 3 | -1.42 | inactive |
| ELK1 (ETS transcription factor ELK1) | 4 | -0.418 | inactive |
| ELK1 (ETS transcription factor ELK1) | 5 | -0.34 | inactive |
| ELK1 (ETS transcription factor ELK1) | 6 | 0.135 | inactive |
| IFNAR2 (interferon alpha and beta receptor subunit 2) | 1 | -0.0627 | inactive |
| IFNAR2 (interferon alpha and beta receptor subunit 2) | 2 | -1.05 | inactive |
| IFNAR2 (interferon alpha and beta receptor subunit 2) | 3 | -2.66 | active |
| IFNAR2 (interferon alpha and beta receptor subunit 2) | 4 | -0.338 | inactive |
| IFNAR2 (interferon alpha and beta receptor subunit 2) | 5 | 0.717 | inactive |
| IFNAR2 (interferon alpha and beta receptor subunit 2) | 6 | -0.751 | inactive |
| IRF5 (interferon regulatory factor 5) | 1 | -3.88 | active |
| IRF5 (interferon regulatory factor 5) | 2 | 0.473 | inactive |
| IRF5 (interferon regulatory factor 5) | 3 | -1.68 | active |
| IRF5 (interferon regulatory factor 5) | 4 | 0.0164 | inactive |
| IRF5 (interferon regulatory factor 5) | 5 | -1.09 | inactive |
| IRF5 (interferon regulatory factor 5) | 6 | -1.43 | inactive |
| CCL3 (C-C motif chemokine ligand 3) | 1 | -1.8 | active |
| CCL3 (C-C motif chemokine ligand 3) | 2 | -0.193 | inactive |
| CCL3 (C-C motif chemokine ligand 3) | 3 | -0.18 | inactive |
| CCL3 (C-C motif chemokine ligand 3) | 4 | 0.0456 | inactive |
| CCL3 (C-C motif chemokine ligand 3) | 5 | -0.357 | inactive |
| CCL3 (C-C motif chemokine ligand 3) | 6 | 0.197 | inactive |
| CXCL9 (C-X-C motif chemokine ligand 9) | 1 | -0.0518 | inactive |
| CXCL9 (C-X-C motif chemokine ligand 9) | 2 | -0.871 | inactive |
| CXCL9 (C-X-C motif chemokine ligand 9) | 3 | -1.32 | inactive |
| CXCL9 (C-X-C motif chemokine ligand 9) | 4 | -1.5 | inactive |
| CXCL9 (C-X-C motif chemokine ligand 9) | 5 | -0.132 | inactive |
| CXCL9 (C-X-C motif chemokine ligand 9) | 6 | 0.115 | inactive |
| TLR2 (toll like receptor 2) | 1 | -0.315 | inactive |
| TLR2 (toll like receptor 2) | 2 | -1.35 | inactive |
| TLR2 (toll like receptor 2) | 3 | -1.87 | active |
| TLR2 (toll like receptor 2) | 4 | -0.0396 | inactive |
| TLR2 (toll like receptor 2) | 5 | -0.124 | inactive |
| TLR2 (toll like receptor 2) | 6 | -1.13 | inactive |
| NFKBIE (NFKB inhibitor epsilon) | 1 | -1.1 | inactive |
| NFKBIE (NFKB inhibitor epsilon) | 2 | -1.3 | inactive |
| NFKBIE (NFKB inhibitor epsilon) | 3 | -0.769 | inactive |
| NFKBIE (NFKB inhibitor epsilon) | 4 | -0.353 | inactive |
| NFKBIE (NFKB inhibitor epsilon) | 5 | -1.47 | inactive |
| NFKBIE (NFKB inhibitor epsilon) | 6 | -1.96 | active |
| NFKBIA (NFKB inhibitor alpha) | 1 | -1.52 | active |
| NFKBIA (NFKB inhibitor alpha) | 2 | -0.0507 | inactive |
| NFKBIA (NFKB inhibitor alpha) | 3 | -0.0514 | inactive |
| NFKBIA (NFKB inhibitor alpha) | 4 | -1.03 | inactive |
| NFKBIA (NFKB inhibitor alpha) | 5 | -0.314 | inactive |
| NFKBIA (NFKB inhibitor alpha) | 6 | -0.68 | inactive |
| ITGAX (integrin subunit alpha X) | 1 | -0.957 | inactive |
| ITGAX (integrin subunit alpha X) | 2 | 0.147 | inactive |
| ITGAX (integrin subunit alpha X) | 3 | -0.0702 | inactive |
| ITGAX (integrin subunit alpha X) | 4 | -1.64 | active |
| ITGAX (integrin subunit alpha X) | 5 | -1.42 | inactive |
| ITGAX (integrin subunit alpha X) | 6 | -1.13 | inactive |
| UBE2V1 (ubiquitin conjugating enzyme E2 V1) | 1 | 0.927 | inactive |
| UBE2V1 (ubiquitin conjugating enzyme E2 V1) | 2 | 0.0274 | inactive |
| UBE2V1 (ubiquitin conjugating enzyme E2 V1) | 3 | 0.00676 | inactive |
| UBE2V1 (ubiquitin conjugating enzyme E2 V1) | 4 | -1.2 | inactive |
| UBE2V1 (ubiquitin conjugating enzyme E2 V1) | 5 | -0.000804 | inactive |
| UBE2V1 (ubiquitin conjugating enzyme E2 V1) | 6 | -0.55 | inactive |
| SP1 (Sp1 transcription factor) | 1 | -3.18 | active |
| SP1 (Sp1 transcription factor) | 2 | -1.81 | active |
| SP1 (Sp1 transcription factor) | 3 | 1.04 | inactive |
| SP1 (Sp1 transcription factor) | 4 | 1.7 | active |
| SP1 (Sp1 transcription factor) | 5 | -0.0229 | inactive |
| SP1 (Sp1 transcription factor) | 6 | -1.6 | active |
| IL12B (interleukin 12B) | 1 | -1.98 | active |
| IL12B (interleukin 12B) | 2 | -0.887 | inactive |
| IL12B (interleukin 12B) | 3 | -1.28 | inactive |
| IL12B (interleukin 12B) | 4 | -0.197 | inactive |
| IL12B (interleukin 12B) | 5 | -2.15 | active |
| IL12B (interleukin 12B) | 6 | -0.801 | inactive |
| TRADD (TNFRSF1A associated via death domain) | 1 | -1.47 | inactive |
| TRADD (TNFRSF1A associated via death domain) | 2 | -1.39 | inactive |
| TRADD (TNFRSF1A associated via death domain) | 3 | 0.122 | inactive |
| TRADD (TNFRSF1A associated via death domain) | 4 | -2.15 | active |
| TRADD (TNFRSF1A associated via death domain) | 5 | 0.339 | inactive |
| TRADD (TNFRSF1A associated via death domain) | 6 | -3.61 | active |
| RAC1 (Rac family small GTPase 1) | 1 | 0.11 | inactive |
| RAC1 (Rac family small GTPase 1) | 2 | -0.359 | inactive |
| RAC1 (Rac family small GTPase 1) | 3 | 0.154 | inactive |
| RAC1 (Rac family small GTPase 1) | 4 | -0.282 | inactive |
| RAC1 (Rac family small GTPase 1) | 5 | 0.123 | inactive |
| RAC1 (Rac family small GTPase 1) | 6 | -1.74 | active |
| IRAK4 (interleukin 1 receptor associated kinase 4) | 1 | -0.711 | inactive |
| IRAK4 (interleukin 1 receptor associated kinase 4) | 2 | 0.228 | inactive |
| IRAK4 (interleukin 1 receptor associated kinase 4) | 3 | 0.371 | inactive |
| IRAK4 (interleukin 1 receptor associated kinase 4) | 4 | -0.56 | inactive |
| IRAK4 (interleukin 1 receptor associated kinase 4) | 5 | -0.445 | inactive |
| IRAK4 (interleukin 1 receptor associated kinase 4) | 6 | -0.208 | inactive |
| MAPK14 (mitogen-activated protein kinase 14) | 1 | -1.87 | active |
| MAPK14 (mitogen-activated protein kinase 14) | 2 | -1.68 | active |
| MAPK14 (mitogen-activated protein kinase 14) | 3 | -1.89 | active |
| MAPK14 (mitogen-activated protein kinase 14) | 4 | -1.2 | inactive |
| MAPK14 (mitogen-activated protein kinase 14) | 5 | -1.12 | inactive |
| MAPK14 (mitogen-activated protein kinase 14) | 6 | -2.28 | active |
| EP300 (EP300 lysine acetyltransferase) | 1 | 1.69 | active |
| EP300 (EP300 lysine acetyltransferase) | 2 | 0.0618 | inactive |
| EP300 (EP300 lysine acetyltransferase) | 3 | 0.2 | inactive |
| EP300 (EP300 lysine acetyltransferase) | 4 | 0.405 | inactive |
| EP300 (EP300 lysine acetyltransferase) | 5 | -0.531 | inactive |
| EP300 (EP300 lysine acetyltransferase) | 6 | 1.98 | active |
| RELB (RELB proto-oncogene, NF-kB subunit) | 1 | 0.277 | inactive |
| RELB (RELB proto-oncogene, NF-kB subunit) | 2 | -0.166 | inactive |
| RELB (RELB proto-oncogene, NF-kB subunit) | 3 | 0.429 | inactive |
| RELB (RELB proto-oncogene, NF-kB subunit) | 4 | 0.137 | inactive |
| RELB (RELB proto-oncogene, NF-kB subunit) | 5 | 0.0958 | inactive |
| RELB (RELB proto-oncogene, NF-kB subunit) | 6 | 0.711 | inactive |

Laid out differently: 13 of the entries above.
gene symbol	reagent	TNF reporter z-score, replicate mean	outcome
IRF5 (interferon regulatory factor 5)	5	-1.09	inactive
IRF5 (interferon regulatory factor 5)	6	-1.43	inactive
CCL3 (C-C motif chemokine ligand 3)	1	-1.8	active
CCL3 (C-C motif chemokine ligand 3)	2	-0.193	inactive
CCL3 (C-C motif chemokine ligand 3)	3	-0.18	inactive
CCL3 (C-C motif chemokine ligand 3)	4	0.0456	inactive
CCL3 (C-C motif chemokine ligand 3)	5	-0.357	inactive
CCL3 (C-C motif chemokine ligand 3)	6	0.197	inactive
CXCL9 (C-X-C motif chemokine ligand 9)	1	-0.0518	inactive
CXCL9 (C-X-C motif chemokine ligand 9)	2	-0.871	inactive
CXCL9 (C-X-C motif chemokine ligand 9)	3	-1.32	inactive
CXCL9 (C-X-C motif chemokine ligand 9)	4	-1.5	inactive
CXCL9 (C-X-C motif chemokine ligand 9)	5	-0.132	inactive
